Laboratory results taken from patent US20230183342A1 (YISSUM RESEARCH DEVELOPMENT COMPANY OF THE HEBREW …, published 2023).
Results are given in words; binding and its absence hold for the method and conditions named. Some results given as binding are weak or reduced against the parent protein; the word gives no strength.

By UniProt entry, the sequences of proteins in these tests, tags left out. Where a name states a change or a piece, a line headed by the entry shows the natural chain unless it says otherwise. Residues count along the entry.
UniProt O76036: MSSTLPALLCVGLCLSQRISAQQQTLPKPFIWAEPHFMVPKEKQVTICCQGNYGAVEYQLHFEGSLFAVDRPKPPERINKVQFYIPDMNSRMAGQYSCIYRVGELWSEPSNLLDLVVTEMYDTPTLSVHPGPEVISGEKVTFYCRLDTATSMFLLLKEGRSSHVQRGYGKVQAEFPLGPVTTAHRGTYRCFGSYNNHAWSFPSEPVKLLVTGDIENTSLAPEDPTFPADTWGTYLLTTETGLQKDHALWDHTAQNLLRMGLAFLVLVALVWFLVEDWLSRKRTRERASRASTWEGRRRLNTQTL
human NKp46 on cells (BW NKp46 transfectants; activated primary human NK cells): residues 22-304 of O76036
Acro Biosystems Human NKp46 expressed in HEK293 cells: residues 22-258 of O76036

Legend:
NKp46 D2 domain-Ig = molecular target: T1, NKp46 D2 domain-Ig (human, UniProt O76036 121-254); assay: ELISA, Ig-D2 plated at 0.1 ug/well, OD650nm
T1 construct: also called D2-Ig; Ig-D2; not shown: Ig part not described for this construct

[1] = molecular target: human NKp46 on cells (BW NKp46 transfectants; activated primary human NK cells) (human) (UniProt O76036); assay: FACS of activated bulk NK cells incubated with the mAb for 8 hrs at 4 C or 37 C, secondary antibody anti-m647
[2] = molecular target: human NKp46 on cells (BW NKp46 transfectants; activated primary human NK cells) (human) (UniProt O76036); assay: flow cytometry on IL-2 activated primary human NK cells
[3] = molecular target: NKp46-Fc fusion protein (NKp46 ectodomain and human IgG1 Fc fragment) (human) (UniProt O76036); assay: ELISA, 46-Ig plated at 0.1 ug/well, mAb added, biotin anti-mouse / streptavidin-POD / TMB, OD 650nm
[4] = molecular target: human NKp46 on cells (BW NKp46 transfectants; activated primary human NK cells) (human) (UniProt O76036); assay: flow cytometry on BW transfectant cells expressing NKp46
[5] = molecular target: human NKp46 on cells (BW NKp46 transfectants; activated primary human NK cells) (human) (UniProt O76036); assay: FACS dose response on primary activated bulk human NK cells of two donors, mAb 0.5 to 0.0001 ug/well, secondary antibody m-647
[6] = molecular target: human NKp46 on cells (BW NKp46 transfectants; activated primary human NK cells) (human) (UniProt O76036); assay: dose response FACS staining of activated primary NK cells from two donors
[7] = molecular target: Acro Biosystems Human NKp46 expressed in HEK293 cells (human) (UniProt O76036); assay: ELISA on coated Acro Biosystems human NKp46, detection anti-Hu Kappa HRP / TMB, absorbance 450 nm (% Absorbance Normalized)

Measured: binding

B1: anti-NKp46 monoclonal antibody clone K3 (antibody, V domains shown)
VH: EVQLQQSGPELVKPGTSVKISCKTSGYTFTEYSMHWVKQSHGKSLEWFGGISPNSGGTSYNQKFKGKATLTVDKSSSTAYMELRSLTSEDSAVYYCARRDFHSSFDYWGQGTTLTVSS
VL: DIVLTQSPATLSVTPGNSVSLSCRASQSISDYLHWFQQKSHESPRLLIKYASQSISGIPSRFSGSGSGSDFTLSINSVEPEDVGVYYCQNGHSFPLTFGPGTKLELK
binds: NKp46 D2 domain-Ig | [1] | [2] | [3] | [4] | [5] | [6]

B2: humanized K3 antibody having mutated IgG4 (antibody, V domains shown)
VH: EVQLQQSGAEVKKPGSSVKVSCKTSGYTFTEYSMHWVRQAPGKSLEWFGGISPNSGGTSYNQKFKGRATLTVDKSSSTAYMELSSLRSEDTAVYYCARRDFHSSFDYWGQGTTVTVSS
VL: DIVLTQSPATLSLSPGERATLSCRASQSISDYLHWFQQKPHESPRLLIKYASQSISGIPARFSGSGSGSDFTLTISSLEPEDFAVYYCQNGHSFPLTFGPGTKVDIKR
notes: detected with an anti-human kappa secondary antibody
binds: [7]
